According to EP2724723A1, “Tegaserod for use in the treatment of nerve injuries” (Universitätsklinikum Hamburg-Eppendorf, priority 2012, dated 2014):
At least one compound was matched to its structure with a doubt left.

Test system: PSA specific monoclonal antibody 735
Assay: Surface plasmon resonance competition experiment (BIAcore 3000)
Type: binding
Conditions: control compound compared with tegaserod
Description: The running buffer was phosphate-buffered saline (PBS, pH 7.4). PSA mimicking peptide coupled to catalase was covalently immobilized to CM5 sensor chips (carboxymethyl dextran; GE Healthcare Europe GmbH) via primary amino groups, using standard coupling protocols (Karlsson et al. (1991); J. Immunol. Methods 145 (1-2): 229-240. In brief, the sensor surface was activated by a 7-min pulse of 0.2 M N-ethyl-N-(3-dimethylaminopropyl) carbodiimide and 50 mM N-hydroxysuccinimide. The PSA peptide solution (10 nM in 10 mM sodium acetate, pH 5.2) was then injected for 5-10 min. Ethanolamine (1 M, pH 8.5) was used to block remaining activated carboxyl groups. Ligand densities of 100-150 fmol/mm^2 were reached. Immobilized control peptide (10 nM PSA scrambled peptide coupled to catalase) was used as a reference surface. […] The data were analyzed using the BIAevaluation 3.0 software. All sensorgrams were corrected for background and bulk refractive index by subtraction of the reference.
To confirm that tegaserod binds specifically to antibody 735, a competition experiment was performed. First, the PSA specific monoclonal antibody 735 (10 nM) was pre-incubated for 1 h at room temperature with different molar concentrations (1, 2, 5, 8, 15 and 30 µM) of tegaserod or control compound. Then the antibody/organic compound solutions were injected ([…]) to the PSA peptide-coupled chip. […]

## CCOC(=O)C1=C(C)NC(C)=C(C(=O)OC)C1c1cccc([N+](=O)[O-])c1 (stereo not shown) [nitrendipine, 5-O-ethyl 3-O-methyl-2,6-dimethyl-4-(3-nitrophenyl)-1,4-dihydropyridine-3,5-dicarboxylate]
  inhibition of mAb 735 binding in SPR (in words): markedly less inhibition than tegaserod
